The results are deposited in PubChem (AID977624; Broad Institute, 2014).

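GFP-tagged normal-ribosome E. coli mixed with an RFP-tagged h34 humanized strain, with green signal taken as growth after 24 hours.
The value is the change in activity at the highest dose tested; more negative means stronger inhibition.
Active requires GFP to fall at least twice as much as RFP with growth loss below a set limit; inconclusive means no clear call; everything else is inactive.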

These entries are mostly ones the record files as inconclusive; other results of the assay are not listed here.

For O=C(Cn1cnc2ccccc21)c1ccc(Br)cc1 [at 50 µM (top of the series)] the result was activity change 5.675 (inactive). Result for CC(=O)Nc1ccc(OCc2nnc(-c3ccccc3)o2)cc1 [at 50 µM (top of the series)] was activity change 1.813 (inconclusive). For CN(C(=O)CN1C(=O)NC2(CCc3ccccc32)C1=O)C1CCCCC1 (centres undefined) [at 50 µM (top of the series)] the result was activity change 16.19 (inconclusive). CCCOC(=O)c1ccc(NC(=O)c2nc3nc(C)cc(C)n3n2)cc1 [at 50 µM (top of the series)] read activity change 0.138 (inconclusive). CSc1ccc(CN(C)C(=O)C(c2ccccc2)c2ccccc2)cc1 [at 50 µM (top of the series)] gave activity change -1.494 (inactive). C=CCN(CC=C)CC(O)Cn1c2ccccc2c2ccccc21 (centres undefined) [at 50 µM (top of the series)] gave activity change -12.38 (inconclusive). With C[C@@H]1CCCCO[C@H](CN(C)C)[C@@H](C)CN([C@H](C)CO)C(=O)c2cc(NC(=O)Nc3cccc4ccccc34)ccc2O1 [at 50 µM (top of the series)] the assay gave activity change 44.37 (inconclusive).

Result for COc1ccccc1CNC(=O)CSc1ccc(C)cc1 [at 50 µM (top of the series)] was activity change -8.885 (inactive). Result for CN(C)CCCNc1ccc(-c2cc(Nc3cccc(Cl)c3)ncn2)cn1 [at 50 µM (top of the series)] was activity change 16.54 (inconclusive). Result for COc1cc2ccccc2cc1C(=O)NC1CCCCC1 [at 50 µM (top of the series)] was activity change -17.65 (inconclusive). Cc1noc(C)c1NC(=O)Nc1ccc2c(c1)C(=O)N([C@H](C)CO)C[C@@H](C)[C@H](CN(C)C(=O)Nc1ccc3c(c1)OCO3)OCCCC[C@@H](C)O2 [at 50 µM (top of the series)] read activity change 36.38 (inconclusive). O=C(NCCCN1CCOCC1)c1sc2cc([N+](=O)[O-])ccc2c1Cl [at 50 µM (top of the series)] gave activity change 16.08 (inactive). For Cc1noc(C)c1NC(=O)Nc1ccc2c(c1)C(=O)N([C@H](C)CO)C[C@@H](C)[C@@H](CN(C)C(=O)Nc1ccc3c(c1)OCO3)OCCCC[C@@H](C)O2 [at 50 µM (top of the series)] the result was activity change -26.88 (inconclusive). Result for Cc1ccc(C(=O)NCC(=O)OCC(=O)Nc2cccc(S(=O)(=O)N3CCCC3)c2)cc1C [at 50 µM (top of the series)] was activity change 20.39 (inconclusive).

O=C(NCc1cccnc1)c1ccc(COc2ccccc2Br)o1 [at 50 µM (top of the series)] read activity change -25.73 (inconclusive). Result for COc1ccc(NS(=O)(=O)c2ccc(NC(=O)c3ccccc3Br)cc2)nn1 [at 50 µM (top of the series)] was activity change -8.207 (inconclusive). c1ccc2c(c1)Nc1cc3ccccc3cc1S2 [at 50 µM (top of the series)] read activity change 2.866 (inconclusive). With CCOc1ccccc1N1CC(C(=O)Nc2cccc(S(=O)(=O)N3CCCCC3)c2)CC1=O (centres undefined) [at 50 µM (top of the series)] the assay gave activity change 28.54 (inconclusive). C[C@@H]1CN([C@@H](C)CO)C(=O)c2cc(NC(=O)C3CC3)ccc2O[C@H]1CN(C)C(=O)Nc1ccc(C(F)(F)F)cc1 [at 50 µM (top of the series)] gave activity change 3.96 (inconclusive). COc1cc(OC)c(C(=O)OCC(=O)N(Cc2ccccc2)C(C)(C)C)cc1OC [at 50 µM (top of the series)] gave activity change -4.304 (inconclusive). With CCSc1nc2ccccc2c(=O)n1CCc1ccc(OC)c(OC)c1 [at 50 µM (top of the series)] the assay gave activity change -7.073 (inactive).

COc1ccccc1NC(=O)CSc1nccn1Cc1ccc(F)cc1 [at 50 µM (top of the series)] gave activity change -8.419 (inactive). Result for O=C(COC(=O)c1ccc(O)cc1)Nc1ccccc1 [at 50 µM (top of the series)] was activity change 5.425 (inconclusive). For COc1ccccc1NS(=O)(=O)c1cc(C(=O)Nc2ccc(S(=O)(=O)Nc3onc(C)c3C)cc2)ccc1C [at 50 µM (top of the series)] the result was activity change -27.02 (inconclusive). O=C(O)CC1(CC(=O)Nc2ccc3sccc3c2)CCCCC1 [at 50 µM (top of the series)] read activity change -6.168 (inconclusive). With c1cncc(-c2nc3cc4ccccc4cc3[nH]2)c1 [at 50 µM (top of the series)] the assay gave activity change 25.4 (inconclusive). For O=C(O)C1CCCCC1C(=O)Nc1ccc(OCc2ccccc2)cc1 (centres undefined) [at 50 µM (top of the series)] the result was activity change 7.061 (inconclusive). Result for O=C(CCNC(=O)c1ccccc1)Nc1ccc(Cl)c(S(=O)(=O)N2CCCCC2)c1 [at 50 µM (top of the series)] was activity change -26.51 (inconclusive).

COc1ccc(NC(=O)CSc2n[nH]c(-c3ccncc3)n2)c([N+](=O)[O-])c1 [at 50 µM (top of the series)] gave activity change 8.181 (inconclusive). With OCCC1CN(Cc2cnc(-c3ccc(Cl)cc3)nc2)CCN1C1CCCCC1 (centres undefined) [at 50 µM (top of the series)] the assay gave activity change 10.64 (inactive). For O=C(Nc1ccc2nc(-c3cccnc3)[nH]c2c1)c1ccco1 [at 50 µM (top of the series)] the result was activity change 1.173 (inconclusive). With COc1ccc(C(=O)Nc2ccc3nc(C)sc3c2)cc1OC [at 50 µM (top of the series)] the assay gave activity change 1.877 (inconclusive). With COc1ccc(-c2csc3ncn(-c4ccccc4OC)c(=O)c23)cc1OC [at 50 µM (top of the series)] the assay gave activity change -3.306 (inconclusive). Result for COC(=O)c1ccc(C(=O)Nc2ccc3nc(-c4ccncc4)[nH]c3c2)cc1 [at 50 µM (top of the series)] was activity change 1.814 (inactive). For Cc1occc1-c1nnc(SCC(=O)Nc2nc(-c3ccccc3)cs2)o1 [at 50 µM (top of the series)] the result was activity change 9.004 (inconclusive).

The first 4 entries again:

{"compound": "O=C(Cn1cnc2ccccc21)c1ccc(Br)cc1", "setting": "at 50 µM (top of the series)", "activity change": "5.675", "filed as": "inactive"}
{"compound": "CC(=O)Nc1ccc(OCc2nnc(-c3ccccc3)o2)cc1", "setting": "at 50 µM (top of the series)", "activity change": "1.813", "filed as": "inconclusive"}
{"compound": "CN(C(=O)CN1C(=O)NC2(CCc3ccccc32)C1=O)C1CCCCC1", "stereo": "centres undefined", "setting": "at 50 µM (top of the series)", "activity change": "16.19", "filed as": "inconclusive"}
{"compound": "CCCOC(=O)c1ccc(NC(=O)c2nc3nc(C)cc(C)n3n2)cc1", "setting": "at 50 µM (top of the series)", "activity change": "0.138", "filed as": "inconclusive"}